Measurements reported in the supplement of paper PMC3334620.
The full ranking holds about 33,000 sequences; the median of “E-score (-0.5 to 0.5)” is about -8e-05, and the highest 2% start at about 0.23. The list shows a part of the results.

molecular target: T1, Nrg2 (UniProt P38082); assay: PBM E-score (8-mer binding enrichment) (E-score (-0.5 to 0.5)); higher = stronger / more preferred TF binding; settings: protein concentration: 100 nM; construct: GST-full length
T1 sequence: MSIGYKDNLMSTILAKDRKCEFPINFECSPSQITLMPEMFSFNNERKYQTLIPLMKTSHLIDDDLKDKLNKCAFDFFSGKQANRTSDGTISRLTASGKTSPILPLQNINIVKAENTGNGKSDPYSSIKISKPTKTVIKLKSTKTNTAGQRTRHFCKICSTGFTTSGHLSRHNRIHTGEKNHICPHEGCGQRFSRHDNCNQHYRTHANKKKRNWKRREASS
Method in brief: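 Full-length yeast transcription factors or their DNA-binding domains, GST-tagged and expressed with PURExpress, were applied at about 100-200 nM to universal all-10-mer Agilent arrays. These arrays had been made double-stranded by primer extension on fresh or once-stripped slides. Detection used fluorescent anti-GST, normalisation used masliner, and E-scores for ungapped eight-base words pooled with reverse complements came from the Universal PBM Analysis Suite.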

| Sequence | PBM E-score |
| --- | --- |
| GCCCATTA | -0.025 |
| ATCTCGGC | 0.0312 |
| ACAATAAG | 0.0954 |
| GACAAACC | -0.0232 |
| CAAAAAAC | 0.079 |
| CCTGTCCG | 0.0584 |
| CGGGAGCC | -0.131 |
| GTGCAAAC | -0.0879 |
| GGAAGGCC | -0.234 |
| CATATGCA | 0.125 |
| CCTGCTTC | -0.167 |
| GTGTAGCA | -0.149 |
| ACCCAAAG | -0.207 |
| CAAGAGTG | -0.163 |
| AGGTGATA | -0.0337 |
| AGCTTAGA | 0.00969 |
| CGTCAACA | -0.0667 |
| AGCTTACT | 0.044 |
| TACGAAGA | -0.00851 |
| ACATATTG | 0.0964 |
| AAGGCAGC | -0.156 |
| CCAGAAAG | 0.0704 |

| Sequence | PBM E-score |
| --- | --- |
| CACCCGGG | -0.0923 |
| CAGCAACA | 0.159 |
| CCGGGCAC | -0.16 |
| AGGCACCC | -0.182 |
| ATCAATCG | 0.137 |
| CGATGGTC | 0.0607 |
| CCTTGTAG | -0.223 |
| ATTCGGAG | 0.0374 |
| GGGCCCGA | 0.159 |
| CATAATGA | 0.041 |
| ATTGTGCA | 0.0869 |
| CTCTCAAG | 0.0208 |
| GAAGTCAC | -0.175 |
| AGCTCTTC | -0.0113 |
| CTCCCCCC | -0.365 |
| TATTTACA | -0.037 |
| ATCGACTG | 0.0939 |
| CTTTTCGC | 0.0709 |
| TCAAAACA | 0.0219 |
| CCTGCCAC | -0.119 |
| TCCGACAA | -0.0198 |
| CGGGTGAG | -0.177 |

| Sequence | PBM E-score |
| --- | --- |
| TATAAGAA | 0.12 |
| ATGCTCTA | -0.142 |
| AATTTGTC | -5e-05 |
| CTTATAAG | -0.125 |
| GAATGAAA | 0.103 |
| CGGTGTCA | -0.128 |
| ACTAGATG | 0.0769 |
| AAAGCTCC | -0.11 |
| AACACTCC | 0.0648 |
| CTCCGACC | -0.284 |
| AACGGGTG | 0.156 |
| ACCCGCTG | -0.133 |
| CCCCGGCG | -0.211 |
| AGCTAAGC | -0.0767 |
| CAACTCCG | 0.105 |
| AACGTAGA | 0.00953 |
| CTCTTGCC | -0.164 |
| ATCCGCAA | -0.0409 |
| AAACGGGC | -0.00186 |
| TCACTCAA | -0.0418 |
| AAGTATGC | -0.0791 |
| ATATTTCG | 0.13 |

Two records drawn at random from the list so far, as already listed:

| Sequence | PBM E-score |
| --- | --- |
| AATTTGTC | -5e-05 |
| CCCCGGCG | -0.211 |

Following part

| Sequence | PBM E-score |
| --- | --- |
| GCTTACCC | -0.119 |
| GCTTAATA | 0.0947 |
| ATGCCGTC | -0.0561 |
| ATGGTCTG | 0.033 |
| CATTCGAA | 0.0948 |
| ATTCGTTG | 0.239 |
| GATGTAAC | -0.0657 |
| GATGGGAC | -0.07 |
| AGGAGTAC | -0.221 |
| CACCATTC | -0.0432 |
| ACCAATGA | 0.00102 |
| AATTTTAT | 0.166 |
| ATAGTTGG | 0.0177 |
| AGTCCGAA | 0.0201 |
| AATAAGAG | 0.115 |
| GTGACGAA | 0.0579 |
| ACCGGGAC | -0.0511 |
| CCCAAGGG | -0.0432 |
| ATGTCCAA | -0.00031 |
| TATGCTCA | 0.0339 |
